Source: PubChem BioAssay AID504467 (National Center for Advancing Translational Sciences (NCATS), 2011)
The campaign covered roughly 330,000 compounds. About 7,700 (2.3%) were called active. The inconclusive results got no clear call from the source; some entries with a clear call stand among them for comparison. The call rests on the fitted dose curve; in most records, active means well fitted inhibition curve with a large enough effect; inconclusive means small, poorly fitted or top-dose-only effect, or effect the other way; inactive means flat fitted curve, though single readings scatter. Where the call is inconclusive, the potency comes from a doubtful curve fit.

Assay: qHTS screen for small molecules that inhibit ELG1-dependent DNA repair in human embryonic kidney (HEK293T) cells expressing luciferase-tagged ELG1; further: nearly all actives have a fitted effect of over 55% in size
Conditions: HEK293T ELG1-luciferase reporter, luminescence, 16 h, DNA damage induced by 5-fluorouridine; series mostly up to 46.1 µM
In short: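 Overnight (16 hr) co-exposure of 2,000 cells/well to 5-fluorouridine and compound at 37 °C preceded detection. Luciferase was quantified via ONE-Glo luminescence; loss of signal denotes inhibition.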
Potency means the concentration at half of the fitted maximal effect.

Question: Which Potency does the source give for `Cc1cc(OCC(=O)Nc2ccccc2N2CCCCC2)ccc1C(C)C` here?
Answer: Its Potency is “inactive”.

Question: Which Potency does the source give for `Cc1nc(N2CCN(Cc3ccccc3)CC2)nc2c1C(=O)CCC2` here?
Answer: Its Potency is inconclusive: 14.6 µM [inhibitor, partial curve].

Question: Which Potency does the source give for `CCc1ccc(NS(=O)(=O)c2cc3c(cc2C)n(C)c(=O)c(=O)n3C)cc1` here?
Answer: Its Potency is “inactive”.

Question: Which Potency does the source give for `CN(C)c1ccc(S(=O)(=O)N2CCCCC2)cc1NC(=O)CN1C(=O)NC2(CCCC2)C1=O` here?
Answer: Its Potency is “inactive”.

Question: With `O=C1NC(Cc2ccccc2)c2nc3ccc(Br)cc3c(=O)n2-c2cc(Cl)ccc21` (stereo not drawn) as the molecule, how does the Potency read?
Answer: The Potency was “inactive”.

Question: For `CCOc1ccc(S(=O)(=O)N2CCN(S(=O)(=O)c3ccc(C(C)=O)cc3)CC2)cc1`, which Potency is on record?
Answer: Its Potency is inconclusive: 29.1 µM [activator, partial curve, poor fit].

Question: With `CCCN1CCC(=O)N([C@H](COc2ccccc2)CC(C)C)CC1` as the molecule, how does the Potency read?
Answer: The Potency was “inactive”.

Question: For `COc1ccccc1N1CCN(C(=O)CN(c2cc(C)cc(C)c2)S(C)(=O)=O)CC1`, which Potency is on record?
Answer: Its Potency is inconclusive: 29.1 µM [inhibitor, single point].

Question: For `N#CCSc1nc(Nc2ccc3c(c2)OCO3)c2ccccc2n1`, which Potency is on record?
Answer: Its Potency is inconclusive: 20.6 µM [inhibitor, single point].

Question: With `CCC(C)(C)n1nnnc1C(c1cc2cc(C)cc(C)c2[nH]c1=O)N1CCCC1` (stereo not drawn) as the molecule, how does the Potency read?
Answer: Its Potency is active: 14.6 µM.

Question: Which Potency does the source give for `COc1ccc(N(CC(O)Cn2c3ccccc3c3ccccc32)S(=O)(=O)c2ccccc2)cc1` (stereo not drawn) here?
Answer: Its Potency is “inactive”.

Question: Which Potency does the source give for `CCOC(=O)C1CCCN(C(=O)c2cc(S(=O)(=O)N3CCCCC3)c[nH]2)C1` (stereo not drawn) here?
Answer: The Potency was “inactive”.

Question: With `O=c1oc2c(CN3CCOCC3)c(O)ccc2c2c1CCC2` as the molecule, how does the Potency read?
Answer: Its Potency is “inactive”.

Question: With `CCN(C(=O)CSc1nnc(-c2ccc(OC)cc2)n1C(C)C)C1CCS(=O)(=O)C1` (stereo not drawn) as the molecule, how does the Potency read?
Answer: The Potency was “inactive”.

Question: For `O=C(CCn1c(=O)oc2ccc(Cl)cc21)NCCCN1CCOCC1`, which Potency is on record?
Answer: The Potency was “inactive”.

Question: For `C[C@H](CO)N1C[C@H](C)[C@@H](CN(C)CC2CCCCC2)Oc2c(NC(=O)Cc3ccccc3)cccc2C1=O`, which Potency is on record?
Answer: The Potency was inconclusive: 25.9 µM [inhibitor, partial curve].

Question: Which Potency does the source give for `O=C(C1CCN(S(=O)(=O)c2ccc(Br)s2)CC1)N1CCCCC1` here?
Answer: Its Potency is inconclusive: 14.6 µM [inhibitor, partial curve].

Question: With `CCOc1cccc(/C=N/NC(=S)Nc2ccccc2[N+](=O)[O-])c1O` as the molecule, how does the Potency read?
Answer: Its Potency is inconclusive: 0.58 µM [activator, full curve].

Question: With `O=C(O)Cn1c(SCc2cccc3ccccc23)nc2ccccc21` as the molecule, how does the Potency read?
Answer: Its Potency is “inactive”.

Question: With `C#CCOCCOCCOCCNc1nc(N2CCN(C(=O)[C@H](CCC(=O)O)n3cc([C@@H](N)[C@H](C)CC)nn3)CC2)nc(N2CCN(C(=O)[C@H](CCC(=O)O)n3cc([C@@H](N)CC(N)=O)nn3)CC2)n1` as the molecule, how does the Potency read?
Answer: The Potency was “inactive”.

Question: With `O=C(Nc1ccc2oc(-c3ccccc3)nc2c1)c1ccccc1F` as the molecule, how does the Potency read?
Answer: Its Potency is inconclusive: 8.2 µM [activator, partial curve].

Question: For `Cc1c(C(=O)OCC(C)C)[nH]c2c1C(=O)CC(c1ccco1)C2` (stereo not drawn), which Potency is on record?
Answer: Its Potency is inconclusive: 0.58 µM [inhibitor, partial curve, poor fit].

Question: Which Potency does the source give for `CCCNC(=O)c1c(NC(=O)C2COc3ccccc3O2)sc2c1CCCC2` (stereo not drawn) here?
Answer: The Potency was inconclusive: 16.4 µM [activator, partial curve, poor fit].

Question: With `CSc1ncccc1C(=O)OCC(=O)Nc1cccc(S(=O)(=O)N2CCOCC2)c1` as the molecule, how does the Potency read?
Answer: Its Potency is inconclusive: 29.1 µM [inhibitor, single point].

Question: For `CN(CC(=O)Nc1ccc(F)cc1)C(=O)c1cccc(S(=O)(=O)N2CCN(c3ccc(F)cc3)CC2)c1`, which Potency is on record?
Answer: The Potency was inconclusive: 25.9 µM [inhibitor, single point].

Question: For `COc1ccc(OC)c(NC(=O)c2cccc(Cn3cc(Br)c([N+](=O)[O-])n3)c2)c1`, which Potency is on record?
Answer: The Potency was inconclusive: 29.1 µM [inhibitor, single point].

Question: For `Cc1nc2ccc(C(=O)N3CCCC(CO)(Cc4ccc(F)cc4F)C3)cc2nc1C` (stereo not drawn), which Potency is on record?
Answer: Its Potency is inconclusive: 32.6 µM [inhibitor, partial curve, poor fit].

Question: Which Potency does the source give for `CNC(=S)NNC(=O)c1ccc(N(C)C)cc1` here?
Answer: The Potency was inconclusive: 16.4 µM [activator, single point].

Question: Which Potency does the source give for `O=C(NN=Cc1c(O)ccc2ccccc12)c1ccc2c(c1)OCO2` here?
Answer: The Potency was inconclusive: 2.91 µM [inhibitor, single point].

Question: For `O=C(Nc1ccc(F)cc1F)c1ccc2c(c1)[nH]c(=O)n2Cc1ccc(F)cc1`, which Potency is on record?
Answer: Its Potency is inconclusive: 11.2 µM [inhibitor, single point].

Question: Which Potency does the source give for `O=c1oc2ccccc2c2c1ncn2CCN1CCOCC1` here?
Answer: Its Potency is “inactive”.

Question: With `O=C(COC(=O)c1ccc(O)cc1O)Nc1cc(-c2ccccc2)nn1-c1ccccc1` as the molecule, how does the Potency read?
Answer: Its Potency is inconclusive: 29.1 µM [inhibitor, single point].

Question: Which Potency does the source give for `Cc1cc(NC(=O)CSCC(=O)Nc2nc3ccccc3[nH]2)no1` here?
Answer: Its Potency is “inactive”.

Question: With `Cc1cccc(N2C(=O)CC(N3CCN(c4ccccn4)CC3)C2=O)c1` (stereo not drawn) as the molecule, how does the Potency read?
Answer: Its Potency is “inactive”.

Question: For `COc1ccc(OC)c(NC(=O)C2CCC(CNc3c(N4CCOCC4)c(=O)c3=O)CC2)c1` (stereo not drawn), which Potency is on record?
Answer: Its Potency is “inactive”.

Question: Which Potency does the source give for `N/C(=N\OC(=O)Cc1cccs1)c1ccc(Br)cc1` here?
Answer: The Potency was inconclusive: 14.6 µM [activator, partial curve].

Question: With `NC(=O)C1CCCN1` (stereo not drawn) as the molecule, how does the Potency read?
Answer: The Potency was “inactive”.

Question: With `Cc1nnc(SC(C)C(=O)Nc2ccc(S(=O)(=O)NC3CCCCC3)cc2)s1` (stereo not drawn) as the molecule, how does the Potency read?
Answer: Its Potency is inconclusive: 7.31 µM [inhibitor, partial curve].

Question: With `CC1Cc2ccccc2N1C(=O)CSc1nc2ccccc2o1` (stereo not drawn) as the molecule, how does the Potency read?
Answer: Its Potency is inconclusive: 18.4 µM [activator, partial curve].

Question: Which Potency does the source give for `COc1cc(/C=C2/C(=O)NN(c3cccc(Cl)c3)C2=O)cc(Br)c1O` here?
Answer: The Potency was inconclusive: 29.1 µM [activator, single point].

Question: Which Potency does the source give for `CCOc1cc(/C=N\NC(=O)c2ccc(NC(=O)C(C)(C)C)cc2)ccc1OC(=O)c1cccc(C)c1` here?
Answer: The Potency was inconclusive: 32.6 µM [inhibitor, single point].

Question: Which Potency does the source give for `CCc1nc(CN2CCN(Cc3ccc(F)c(F)c3)C(CCO)C2)c(C)[nH]1` (stereo not drawn) here?
Answer: Its Potency is “inactive”.

Question: For `CC(=O)Nc1cccc(-c2cnc(N)c(C(=O)c3cccnc3)n2)c1`, which Potency is on record?
Answer: Its Potency is active: 0.461 µM.

Question: For `COc1ccc(-c2nnc(SCC(=O)Nc3nc4ccccc4s3)n2C)cc1`, which Potency is on record?
Answer: Its Potency is “inactive”.

Question: For `O=C(O)c1ccc(C=NNC(=O)c2ccccc2NS(=O)(=O)c2cccs2)cc1`, which Potency is on record?
Answer: The Potency was inconclusive: 23.1 µM [activator, single point].

Question: Which Potency does the source give for `Cc1ccnc(NC(=O)c2cc(S(=O)(=O)N3CCCCC3)ccc2Cl)c1` here?
Answer: The Potency was inconclusive: 29.1 µM [inhibitor, single point].

Question: For `S=c1[nH]nc(-c2ccco2)n1/N=C/c1ccc(Cl)cc1Cl`, which Potency is on record?
Answer: Its Potency is “inactive”.

Question: For `COc1ccc(CCNC(=O)/C=C/c2ccc3ccccc3n2)cc1OC`, which Potency is on record?
Answer: The Potency was inconclusive: 18.3 µM [inhibitor, single point].

Question: With `O=C(O)c1cc(O)c2c(c1)[C@@H]([C@H]1c3cc(C(=O)O)cc(O)c3C(=O)c3c(O[C@@H]4O[C@H](CO)[C@@H](O)[C@H](O)[C@H]4O)cccc31)c1cccc(O[C@@H]3O[C@H](CO)[C@@H](O)[C@H](O)[C@H]3O)c1C2=O` as the molecule, how does the Potency read?
Answer: The Potency was inconclusive: 25.9 µM [inhibitor, partial curve, poor fit].

Question: For `CCCc1cc(N2CCN(C(=O)c3ccco3)CC2)n2c(nc3ccccc32)c1C#N`, which Potency is on record?
Answer: The Potency was inconclusive: 20.6 µM [inhibitor, partial curve].

Question: For `CCCCNC(=O)CSc1nc(Cc2ccccc2)nc2ccccc12`, which Potency is on record?
Answer: Its Potency is “inactive”.

Question: With `Cc1cc(C(=O)Nc2ccc(S(=O)(=O)N3CCOCC3)cc2)ccc1[N+](=O)[O-]` as the molecule, how does the Potency read?
Answer: The Potency was inconclusive: 22.4 µM [inhibitor, partial curve, poor fit].

Question: Which Potency does the source give for `CN(CC(=O)Nc1ccc(N2CCOCC2)cc1)Cc1cc(=O)n2ccsc2n1` here?
Answer: Its Potency is “inactive”.

Question: Which Potency does the source give for `O=C(CSc1nnc(-c2ccco2)o1)c1ccc([N+](=O)[O-])cc1` here?
Answer: The Potency was “inactive”.

Question: With `CC(Oc1ccc(F)cc1)C(=O)Nc1ccc2ccccc2c1` (stereo not drawn) as the molecule, how does the Potency read?
Answer: The Potency was inconclusive: 20.6 µM [activator, single point].

Question: For `NC(=O)c1c(NC(=O)Cc2cccs2)sc2c1CCC2`, which Potency is on record?
Answer: The Potency was inconclusive: 14.6 µM [activator, partial curve, poor fit].

Question: With `CN(C)c1ccc(-c2nnc(-c3ccc(S(=O)(=O)C(F)F)cc3)o2)cc1` as the molecule, how does the Potency read?
Answer: Its Potency is “inactive”.

Question: With `CCC(=O)Oc1ccc(-c2cnc3ccccc3n2)cc1` as the molecule, how does the Potency read?
Answer: Its Potency is inconclusive: 7.31 µM [activator, partial curve].

Question: Which Potency does the source give for `Cc1ccc2nc(NC(=O)CSc3nc(=O)n(CCCN(C)C)c4c3CCC4)sc2c1` here?
Answer: Its Potency is inconclusive: 29.1 µM [activator, single point].

Question: Which Potency does the source give for `O=C(O)CCC(=O)Nc1ccc(/C=C/C(=O)C2CC2)cc1` here?
Answer: The Potency was “inactive”.

Question: With `COC(=O)c1ccc(CNC(=O)Cn2cnc(C(=O)Nc3ccc(C)c(C)c3)n2)cc1` as the molecule, how does the Potency read?
Answer: Its Potency is inconclusive: 14.6 µM [activator, partial curve, poor fit].

Question: With `O=C(NCCc1ccccc1)c1ccccc1NS(=O)(=O)N1CCCC1` as the molecule, how does the Potency read?
Answer: The Potency was inconclusive: 18.4 µM [activator, single point].

Question: With `CCCn1c(SC(C(=O)Nc2cc(C)ccc2OC)c2ccccc2)nc2ccccc2c1=O` (stereo not drawn) as the molecule, how does the Potency read?
Answer: Its Potency is active: 18.4 µM.

Question: Which Potency does the source give for `COc1cccc(NC(=S)NCc2ccccn2)c1` here?
Answer: Its Potency is inconclusive: 20.6 µM [activator, single point].

Question: Which Potency does the source give for `Cc1ccc(NC(=O)CCC(=O)Nc2nnc(C3CCCCC3)s2)cc1` here?
Answer: Its Potency is “inactive”.

Question: With `Clc1ccc2nc(N3CCCCC3)[nH]c2c1` as the molecule, how does the Potency read?
Answer: Its Potency is inconclusive: 6.51 µM [activator, partial curve].

Question: For `COc1ccc(S(=O)(=O)NCc2ccccn2)cc1NC(=O)c1ccccc1F`, which Potency is on record?
Answer: Its Potency is inconclusive: 5.17 µM [inhibitor, single point].

Question: For `COc1ccc(Cl)cc1NC(=O)CN(C)C(=O)c1cc2ccccc2cc1OC`, which Potency is on record?
Answer: Its Potency is inconclusive: 29.1 µM [inhibitor, single point].
